This data set can be described thus: PRM analysis of CES-B1L and CES-1L in mAb-1. More on the design: species or system CHO. Particulars: PRM analysis of direct digest of mAb-1.

B1: CES-1L: CHO host cell protein lipase identified in mAb-1, SEQ ID NO: 11 (protein, listed as Cricetulus griseus)
chain: MMWLCTFVLTFLTACLYQGHPPSPPIVDTVHGKVLGKYVSLEGFTQPVAIFLGVPFAKPPLGSLRFAPPQSAEPWSFVKNATSYPPMCSQDPAAGQMLSALFTNRKETIPLTFSEDCLYLNIYTPADLTKSSRLPVMVWIHGGGLVDGASTYDGLPLSAHENVVVVTIQYRLGIWGFFSTQDEHSRGNWGHLDQVAALHWVQDNIANFGGDPGSVTIFGESAGGASVSVLVLSPLAKNLFHRAISQSSVILNPCLFGRDARPIAERVAALAGCKTTTSAAMVHCLRQKTEDELLEITKKMKFGALDFLGDPRESYPFLPTVIDGVVLPKTPEEILAEKSFNTVPYMVGINKQEFGWSMPMMIGFPLSEDKLDQKRTTSLLWQSYPILNISESLIPAAIEKYLSGTDNPIRKKDLLLDLMGDVMFGVPSVIVSRGHRDAGAPTYMYEFQYLPSFVSDMRPKTVKGDHGDDLFSVWGAPFLKEGASEEEINLSKMVMKFWGNFARNGPPNGEGLPHWPEYDQKEGYLQIGVPTQAAHRLKDKEVAFWTELRAKEPAERPTQRKHVMVWIHGGGLILGGASTYDGLALSAHENVVVVAIQYRLSIWGFFSTGDEHSRGNWGHLDQVAALHWVQDNIANFGGDPGSVTIFGESAGGESVSVLMFSPLAKNLFHRAISESGVILVPGLFTKDSRIVTEKVAVTAGCKTTTSAVIVHCLRQKTEDELLEVMQKMNLFKLNVQGDTKENHAFVPTVLDGVLLPKAPEEILAEKNFNTVPYIVGINKQEFGWLLPTMMGFLQTDVKWDKKMAIALLQKFAPYFVCQYGRPALYWNPNGEGLPHWPEYDQKEGYLQIGATTQQAQRLKGEEVAFWTEILAKKQPKPEHNEL
Turning to B1, the “concentration of lipase in mAb-1” value stood at 9.0 ppm.

B2: CES-B1L: CHO host cell protein lipase identified in mAb-1, SEQ ID NO: 10 (protein, listed as Cricetulus griseus)
chain: MCLQALFLVLQAICMVWGHPSSPPVVNTVHGKVLGRYISLEGFSQPVAVFLGVPFAKPPLGSLRFAPPQPAEPWSFVKNATSYPPMCSQDAVRGQKINDLITNRKEKIHLEFSEDCLYLNIYTPANLTRSSRLPAARCMIRKARTVSGTKSFLLPQKITGDEHSQGNWGHLDQVAALHWVQDNIAYFGGDPGSVTIFGESAGGFSVSVLVLSPLAKNLFHRAISESGVIFVPSLFTKNPRTATEKVAVTAGCKTTTSAVIVHCLRQKTEDELLEVMQKMVGVFSNGMCSRCLDHAFVPTVLDGVLLPKAPEEILAEKNFNTVPYIVGINKQEFGWLLPTMMRFPQPDDKKMAIALLQKFAPYFGMNEDVVPVAIEKYVRGSNEPLKIRDGVLDILGDLTFGIPSVIVSRGHRDTGASTYMYEFQYHPSFSSHMRPKNVVGDHGDEVYSVFGAPILRDGASEEETNLSKMMMKFWANFARNGNPNGEGLPHWPEYDQKEGYLQIGATTQQTQRLKGEEVAFWTEILAKKHPKPEHNELSNKYLCFELAIKETRDSLHNPNARDVFQVLKSASYGKGSIVRHTPSPPVVDTVHGKVLGKYVSLEGFAQPVAVFLGVPFAKPPLGSLRFAPPQPPEPWNFVKNATSYPPMCSQPDVTGQIVNDLLTNRKENIPLQFSEDCLYLNIYTPSDLTRSDRLPVSCGTSPTF
As for B2, the “concentration of lipase in mAb-1” value was 9.6 ppm.

The values above are taken from patent publication US20210268073A1, “METHODS OF REDUCING POLYSORBATE DEGRADATION IN DRUG FORMULATIONS” (Regeneron Pharmaceuticals, Inc., priority 2020, published 2021).
